Test results taken from patent publication US11220671B2, “Methods for the maturation of cardiomyocytes on amniotic fluid cell-derived ECM, cellular constructs, and uses for cardiotoxicity and proarrhythmic screening of drug compounds” (STEMBIOSYS, INC., priority 2019, dated 2022).

B1: Hyaluronan and proteoglycan link protein 1 (protein, UniProt P10915 16-354, looked up)
Hyaluronan and proteoglycan …: DHLSDNYTLDHDRAIHIQAENGPHLLVEAEQAKVFSHRGGNVTLPCKFYRDPTAFGSGIHKIRIKWTKLTSDYLKEVDVFVSMGYHKKTYGGYQGRVFLKGGSDSDASLVITDLTLEDYGRYKCEVIEGLEDDTVVVALDLQGVVFPYFPRLGRYNLNFHEAQQACLDQDAVIASFDQLYDAWRGGLDWCNAGWLSDGSVQYPITKPREPCGGQNTVPGVRNYGFWDKDKSRYDVFCFTSNFNGRFYYLIHPTKLTYDEAVQACLNDGAQIAKVGQIFAAWKILGYDRCDAGWLADGSVRYPISRPRRRCSPTEAAVRFVGFPDKKHKLYGVYCFRAYN
B2: Golgi-associated plant pathogenesis-related protein 1 (protein, UniProt Q9H4G4 2-154, looked up)
Golgi-associated plant …: GKSASKQFHNEVLKAHNEYRQKHGVPPLKLCKNLNREAQQYSEALASTRILKHSPESSRGQCGENLAWASYDQTGKEVADRWYSEIKNYNFQQPGFTSGTGHFTAMVWKNTKKMGVGKASASDGSSFVVARYFPAGNVVNEGFFEENVLPPKK
B3: Gremlin-1 (protein, UniProt O60565 25-184, looked up)
Gremlin-1: KKKGSQGAIPPPDKAQHNDSEQTQSPQQPGSRNRGRGQGRGTAMPGEEVLESSQEALHVTERKYLKRDWCKTQPLKQTIHEEGCNSRTIINRFCYGQCNSFYIPRHIRKEEGSFQSCSFCKPKKFTTMMVTLNCPELQPPTKKKRVTRVKQCRCISIDLD
B4: Galectin-3-binding protein (protein, UniProt Q08380 19-585, looked up)
Galectin-3-binding protein: VNDGDMRLADGGATNQGRVEIFYRGQWGTVCDNLWDLTDASVVCRALGFENATQALGRAAFGQGSGPIMLDEVQCTGTEASLADCKSLGWLKSNCRHERDAGVVCTNETRSTHTLDLSRELSEALGQIFDSQRGCDLSISVNVQGEDALGFCGHTVILTANLEAQALWKEPGSNVTMSVDAECVPMVRDLLRYFYSRRIDITLSSVKCFHKLASAYGARQLQGYCASLFAILLPQDPSFQMPLDLYAYAVATGDALLEKLCLQFLAWNFEALTQAEAWPSVPTDLLQLLLPRSDLAVPSELALLKAVDTWSWGERASHEEVEGLVEKIRFPMMLPEELFELQFNLSLYWSHEALFQKKTLQALEFHTVPFQLLARYKGLNLTEDTYKPRIYTSPTWSAFVTDSSWSARKSQLVYQSRRGPLVKYSSDYFQAPSDYRYYPYQSFQTPQHPSFLFQDKRVSWSLVYLPTIQSCWNYGFSCSSDELPVLGLTKSGGSDRTIAYENKALMLCEGLFVADVTDFEGWKAAIPSALDTNSSKSTSSFPCPAGHFNGFRTVIRPFYLTNSSGVD
B5: Intercellular adhesion molecule 1 (protein, UniProt P05362 28-532, looked up)
Intercellular adhesion …: QTSVSPSKVILPRGGSVLVTCSTSCDQPKLLGIETPLPKKELLLPGNNRKVYELSNVQEDSQPMCYSNCPDGQSTAKTFLTVYWTPERVELAPLPSWQPVGKNLTLRCQVEGGAPRANLTVVLLRGEKELKREPAVGEPAEVTTTVLVRRDHHGANFSCRTELDLRPQGLELFENTSAPYQLQTFVLPATPPQLVSPRVLEVDTQGTVVCSLDGLFPVSEAQVHLALGDQRLNPTVTYGNDSFSAKASVSVTAEDEGTQRLTCAVILGNQSQETLQTVTIYSFPAPNVILTKPEVSEGTEVTVKCEAHPRAKVTLNGVPAQPLGPRAQLLLKATPEDNGRSFSCSATLEVAGQLIHKNQTRELRVLYGPRLDERDCPGNWTWPENSQQTPMCQAWGNPLPELKCLKDGTFPLPIGESVTVTRDLEGTYLCRARSTQGEVTRKVTVNVLSPRYEIVIITVVAAAVIMGTAGLSTYLYNRQRKIKKYRLQQAQKGTPMKPNTQATPP
B6: Hamartin (protein, UniProt Q92574 1-1164, looked up)
Hamartin: MAQQANVGELLAMLDSPMLGVRDDVTAVFKENLNSDRGPMLVNTLVDYYLETSSQPALHILTTLQEPHDKHLLDRINEYVGKAATRLSILSLLGHVIRLQPSWKHKLSQAPLLPSLLKCLKMDTDVVVLTTGVLVLITMLPMIPQSGKQHLLDFFDIFGRLSSWCLKKPGHVAEVYLVHLHASVYALFHRLYGMYPCNFVSFLRSHYSMKENLETFEEVVKPMMEHVRIHPELVTGSKDHELDPRRWKRLETHDVVIECAKISLDPTEASYEDGYSVSHQISARFPHRSADVTTSPYADTQNSYGCATSTPYSTSRLMLLNMPGQLPQTLSSPSTRLITEPPQATLWSPSMVCGMTTPPTSPGNVPPDLSHPYSKVFGTTAGGKGTPLGTPATSPPPAPLCHSDDYVHISLPQATVTPPRKEERMDSARPCLHRQHHLLNDRGSEEPPGSKGSVTLSDLPGFLGDLASEEDSIEKDKEEAAISRELSEITTAEAEPVVPRGGFDSPFYRDSLPGSQRKTHSAASSSQGASVNPEPLHSSLDKLGPDTPKQAFTPIDLPCGSADESPAGDRECQTSLETSIFTPSPCKIPPPTRVGFGSGQPPPYDHLFEVALPKTAHHFVIRKTEELLKKAKGNTEEDGVPSTSPMEVLDRLIQQGADAHSKELNKLPLPSKSVDWTHFGGSPPSDEIRTLRDQLLLLHNQLLYERFKRQQHALRNRRLLRKVIKAAALEEHNAAMKDQLKLQEKDIQMWKVSLQKEQARYNQLQEQRDTMVTKLHSQIRQLQHDREEFYNQSQELQTKLEDCRNMIAELRIELKKANNKVCHTELLLSQVSQKLSNSESVQQQMEFLNRQLLVLGEVNELYLEQLQNKHSDTTKEVEMMKAAYRKELEKNRSHVLQQTQRLDTSQKRILELESHLAKKDHLLLEQKKYLEDVKLQARGQLQAAESRYEAQKRITQVFELEILDLYGRLEKDGLLKKLEEEKAEAAEAAEERLDCCNDGCSDSMVGHNEEASGHNGETKTPRPSSARGSSGSRGGGGSSSSSSELSTPEKPPHQRAGPFSSRWETTMGEASASIPTTVGSLPSSKSFLGMKARELFRNKSESQCDEDGMTSSLSESLKTELGKDLGVEAKIPLNLDGPHPSPPTPDSVGQLHIMDYNETHHEHS
B7: Flotillin-2 (protein, UniProt Q14254 2-428, looked up)
Flotillin-2: GNCHTVGPNEALVVSGGCCGSDYKQYVFGGWAWAWWCISDTQRISLEIMTLQPRCEDVETAEGVALTVTGVAQVKIMTEKELLAVACEQFLGKNVQDIKNVVLQTLEGHLRSILGTLTVEQIYQDRDQFAKLVREVAAPDVGRMGIEILSFTIKDVYDKVDYLSSLGKTQTAVVQRDADIGVAEAERDAGIREAECKKEMLDVKFMADTKIADSKRAFELQKSAFSEEVNIKTAEAQLAYELQGAREQQKIRQEEIEIEVVQRKKQIAVEAQEILRTDKELIATVRRPAEAEAHRIQQIAEGEKVKQVLLAQAEAEKIRKIGEAEAAVIEAMGKAEAERMKLKAEAYQKYGDAAKMALVLEALPQIAAKIAAPLTKVDEIVVLSGDNSKVTSEVNRLLAELPASVHALTGVDLSKIPLIKKATGVQV
B8: Hyaluronan and proteoglycan link protein 3 (protein, UniProt Q96S86 18-360, looked up)
Hyaluronan and proteoglycan …: LPFYNGFYYSNSANDQNLGNGHGKDLLNGVKLVVETPEETLFTYQGASVILPCRYRYEPALVSPRRVRVKWWKLSENGAPEKDVLVAIGLRHRSFGDYQGRVHLRQDKEHDVSLEIQDLRLEDYGRYRCEVIDGLEDESGLVELELRGVVFPYQSPNGRYQFNFHEGQQVCAEQAAVVASFEQLFRAWEEGLDWCNAGWLQDATVQYPIMLPRQPCGGPGLAPGVRSYGPRHRRLHRYDVFCFATALKGRVYYLEHPEKLTLTEAREACQEDDATIAKVGQLFAAWKFHGLDRCDAGWLADGSVRYPVVHPHPNCGPPEPGVRSFGFPDPQSRLYGVYCYRQH
B9: Far upstream element-binding protein 1 (protein, UniProt Q96AE4 2-644, looked up)
Far upstream element-binding …: ADYSTVPPPSSGSAGGGGGGGGGGGVNDAFKDALQRARQIAAKIGGDAGTSLNSNDYGYGGQKRPLEDGDQPDAKKVAPQNDSFGTQLPPMHQQQSRSVMTEEYKVPDGMVGFIIGRGGEQISRIQQESGCKIQIAPDSGGLPERSCMLTGTPESVQSAKRLLDQIVEKGRPAPGFHHGDGPGNAVQEIMIPASKAGLVIGKGGETIKQLQERAGVKMVMIQDGPQNTGADKPLRITGDPYKVQQAKEMVLELIRDQGGFREVRNEYGSRIGGNEGIDVPIPRFAVGIVIGRNGEMIKKIQNDAGVRIQFKPDDGTTPERIAQITGPPDRCQHAAEIITDLLRSVQAGNPGGPGPGGRGRGRGQGNWNMGPPGGLQEFNFIVPTGKTGLIIGKGGETIKSISQQSGARIELQRNPPPNADPNMKLFTIRGTPQQIDYARQLIEEKIGGPVNPLGPPVPHGPHGVPGPHGPPGPPGPGTPMGPYNPAPYNPGPPGPAPHGPPAPYAPQGWGNAYPHWQQQAPPDPAKAGTDPNSAAWAAYYAHYYQQQAQPPPAAPAGAPTTTQTNGQGDQQNPAPAGQVDYTKAWEEYYKKMGQAVPAPTGAPPGGQPDYSAAWAEYYRQQAAYYAQTSPQGMPQHPPAPQGQ

Assay: Composition of amniotic fluid cell-derived ECM by mass spectrometry (total spectra count)
Settings: mass spectrometry, label = protein component; for Total Spectra Count Matrix A: amniotic fluid cell-derived ECM Matrix A; for Total Spectra Count Matrix B: amniotic fluid cell-derived ECM Matrix B; for Total Spectra Count Matrix C: amniotic fluid cell-derived ECM Matrix C; for Total Spectra Count Matrix D: amniotic fluid cell-derived ECM Matrix D

Molecule | Total Spectra Count Matrix A | Total Spectra Count Matrix B | Total Spectra Count Matrix C | Total Spectra Count Matrix D
B1 | 0 | 0 | 0 | 0
B2 | 0 | 20 | 0 | 0
B3 | 0 | 0 | 3 | 0
B4 | 0 | 4 | 0 | 3
B5 | 0 | 16 | 0 | 0
B6 | 0 | 0 | 0 | 2
B7 | 0 | 13 | 0 | 0
B8 | 0 | 6 | 0 | 0
B9 | 0 | 3 | 0 | 1
